Reference: the supplement of paper PMC3334620
Over roughly 33,000 sequences, “E-score (-0.5 to 0.5)” has its median near -0.015; the highest 2% begin near 0.3. The list shows a part of the results.

Each sequence was assayed against T1, Abf1 (UniProt P14164) (assay: PBM E-score (8-mer binding enrichment) (E-score (-0.5 to 0.5)); higher = stronger / more preferred TF binding). Conditions: protein concentration: 200 nM; construct: GST-full length.
T1 sequence: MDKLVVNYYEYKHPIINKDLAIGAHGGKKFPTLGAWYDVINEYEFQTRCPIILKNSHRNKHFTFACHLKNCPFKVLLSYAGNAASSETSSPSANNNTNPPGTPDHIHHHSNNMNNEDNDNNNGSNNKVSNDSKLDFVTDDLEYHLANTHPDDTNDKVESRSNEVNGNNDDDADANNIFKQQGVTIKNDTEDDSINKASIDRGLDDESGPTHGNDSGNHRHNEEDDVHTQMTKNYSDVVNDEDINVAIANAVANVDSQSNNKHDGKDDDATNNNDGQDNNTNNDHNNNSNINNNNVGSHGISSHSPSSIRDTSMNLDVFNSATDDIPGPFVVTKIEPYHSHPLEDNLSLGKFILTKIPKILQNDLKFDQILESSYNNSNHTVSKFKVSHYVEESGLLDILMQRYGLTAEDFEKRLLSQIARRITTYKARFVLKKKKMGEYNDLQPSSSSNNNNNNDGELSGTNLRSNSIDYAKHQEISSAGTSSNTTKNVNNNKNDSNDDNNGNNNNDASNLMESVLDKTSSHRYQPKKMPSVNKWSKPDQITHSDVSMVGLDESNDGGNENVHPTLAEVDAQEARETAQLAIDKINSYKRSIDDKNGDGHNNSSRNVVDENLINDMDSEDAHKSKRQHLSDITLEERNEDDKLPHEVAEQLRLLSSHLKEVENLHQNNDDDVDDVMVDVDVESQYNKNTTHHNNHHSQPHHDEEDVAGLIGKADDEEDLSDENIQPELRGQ
Protocol: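 Universal 'all 10-mer' protein binding microarrays (Agilent AMADID 015681) probed with GST-tagged S. cerevisiae TFs (full-length or DBD) made by in vitro transcription/translation (PURExpress), about 100-200 nM. Bound TF was detected with fluorescent anti-GST. Each ungapped 8-mer (which stands for itself and its reverse complement) is scored by the PBM enrichment score (E-score), a modified Wilcoxon-Mann-Whitney statistic from -0.5 to +0.5, computed with the Universal PBM Analysis Suite. Scale: above 0.35 generally sequence-specific binding.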

In order of falling “PBM E-score” value:
1. GTGACACA  0.343
2. ATCATCAA  0.26
3. ACATGACA  0.256
4. CTTTCTCA  0.243
5. ACGAGGCT  0.22
6. CGTGGGGA  0.219
7. CAATATGA  0.214
8. AAGGTCGT  0.21
9. ACAGTAAG  0.208
10. CATCTACG  0.205
11. GTTCGTCA  0.2
12. GTAGTTAA  0.197
13. CGGGCCCG  0.189
14. GCAGGTGA  0.185
15. GTATCTTA  0.171
16. AGTTAAAT  0.167
17. CCGCTAAG  0.167
18. CGTTCAAG  0.165
19. TTTCAAAA  0.161
20. AAATCAAG  0.157
21. CCAAATAA  0.157
22. AGCACGCG  0.154
23. CTATTCAA  0.151
24. CCGATCAC  0.145
25. ATTTCTTC  0.141
26. GTGTTTTA  0.128
27. GGGAGTAA  0.126
28. CGGCAACG  0.125
29. CGGAACGC  0.116
30. ACTTACTG  0.11
31. AGTAGATG  0.1
32. CTCATGTC  0.0937
33. ACAGTTGC  0.0909
34. CGTTGCAA  0.0906
35. GTTCCGAA  0.0881
36. ACTTAGGA  0.0859
37. ACAACGTG  0.0819
38. AAGTGAGA  0.0815
39. GGATACCA  0.0815
40. AAGAACTT  0.0634
41. TCGATGAA  0.0596
42. CGGTCTCA  0.0541
43. AACGAGGT  0.0529
44. AGGTGCCA  0.0519
45. AACACAGT  0.0507
46. ACCTAACC  0.0492
47. AAGAGATC  0.0399
48. CCAGGTGA  0.0382
49. TACGGCTA  0.0379
50. CTATATTC  0.037
51. ATCTCCAA  0.0281
52. CGAGACTA  0.0191
53. TACCTCGA  0.0179
54. GTAGCCCA  0.0106
55. CCAATCTC  0.00749
56. ACCGACCG  0.00671
57. ATAAACGC  0.00622
58. CTGAAGTA  0.00574
59. AATCTCTA  0.00206
60. CAGATGAG  -0.00016
61. GCCTGTTA  -0.00093
62. AGTCGCTG  -0.00097
63. CTATCCTA  -0.00232
64. ATACCCTA  -0.0026
65. GCAGAGGA  -0.00561
66. ATTTACCA  -0.00739
67. CGCTCGTA  -0.008
68. TAAGTGGA  -0.0224
69. CGCTTGGC  -0.0261
70. CCGCTTCC  -0.0279
71. CTGTATCC  -0.0284
72. ACCGGGAA  -0.0303
73. CGGTAATC  -0.0316
74. AGTAGACC  -0.0327
75. AGATGGAG  -0.0333
76. GATACCGA  -0.0334
77. AAAGCCTC  -0.0339
78. GACTGTAA  -0.0344
79. ATTCAACC  -0.0361
80. TAACTGCA  -0.0376
81. CAGCTAAG  -0.039
82. TCAGCAGA  -0.0392
83. AAACTCGC  -0.0402
84. GGGCATGA  -0.0446
85. CTCGAACA  -0.0456
86. AACACCAG  -0.0499
87. GCAAATCC  -0.0515
88. GCCTTTGA  -0.0527
89. GTCCCTCA  -0.0534
90. GCTAAGAC  -0.0555
91. AACCGGAG  -0.0557
92. TAAACCGA  -0.0568
93. ATTCTCTC  -0.0576
94. CAGTAACG  -0.058
95. ATGGTATG  -0.0589
96. ATTTGGCA  -0.0611
97. ACTCATTG  -0.0656
98. CCGGAAGC  -0.0686
99. GCTACAAC  -0.0701
100. AGTTTAAC  -0.0718
101. CCATTGCA  -0.0801
102. AGTTCTAC  -0.0808
103. TCGGCAGA  -0.0809
104. ATGGTTAG  -0.0847
105. CTAATGGA  -0.0878
106. CTTGATGC  -0.0892
107. ATTAACCA  -0.093
108. CCACTTAA  -0.0973
109. CTACAATA  -0.0985
110. CAATTGAC  -0.101
111. CAAGCTCG  -0.102
112. GCTATAGA  -0.105
113. AGGTGGCA  -0.106
114. CTCCACAC  -0.109
115. ATCGGTTC  -0.117
116. GGCAACCA  -0.119
117. ACCGCTTC  -0.12
118. CCGTAGCC  -0.12
119. GGCTAGAC  -0.121
120. ACTCATGG  -0.123
121. TCCCATAA  -0.123
122. GGGCTGGA  -0.124
123. ACCCAACC  -0.127
124. CACCGCCG  -0.127
125. AGGGGTAC  -0.127
126. AGGGAGTC  -0.127
127. AGCCATGG  -0.128
128. CCGTTGGC  -0.133
129. GAGAGTAC  -0.134
130. CTGCCTGC  -0.135
131. ACAGTGGC  -0.142
132. AGCCCTGC  -0.143
133. CGGAGCTA  -0.143
134. AGCTTGGC  -0.146
135. CCAGTTAG  -0.147
136. CGGACCTC  -0.149
137. GGGGCCAA  -0.149
138. AGCCTGGC  -0.152
139. GATGCGGC  -0.152
140. AGGGCCAT  -0.153
141. AACGGCTT  -0.154
142. CAGGCCAC  -0.157
143. CTGCTTAA  -0.16
144. GAGACTCA  -0.168
145. CAGACGCG  -0.17
146. CCGAGCAG  -0.172
147. AGTACACT  -0.173
148. GCAGGGGA  -0.177
149. AGCTCCGA  -0.181
150. TAGCGGGA  -0.182
151. AGCCTTCC  -0.184
152. CCTCCGGA  -0.188
153. GGAGCCCA  -0.193
154. CTGCAAAG  -0.193
155. GCCGCCAC  -0.198
156. CCCCGATC  -0.202
157. AACTGGTA  -0.204
158. GTCAAGCA  -0.207
159. CACCCCTA  -0.207
160. CTGCCCAG  -0.207
161. AGCATCCA  -0.207
162. GGGGAGCA  -0.208
163. CCACCGCC  -0.231
164. AGCCCCAC  -0.236
165. CTAGGGCC  -0.238
166. AGATGAAG  -0.247
167. TAGGGGGA  -0.255
168. CCGGAGTC  -0.258
169. AGGGGGAC  -0.269
170. AGGGGCTG  -0.29
171. AGGTGCTC  -0.293
172. AGAGCTGG  -0.296
